Primary screen of a compound library

Mtb growth Cornell: 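Whole-cell assay for inhibitors of Mycobacterium tuberculosis growth, labelled Cornell in the record; the read-out is not stated. The concentration is filed as 10 mM, unlikely as a test dose, so the dose is not known. The record gives no direction; compounds strong in two other growth screens of this library score well above the rest, so higher reads as stronger inhibition. Size under these conditions: about 53,000 compounds, about 900 of them at 50% or above in at least one test.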
Mtb heat-shock: 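Assay on Mycobacterium tuberculosis, filed only as a heat shock assay from Cornell; the read-out is not stated. The concentration is filed as 10 mM, unlikely as a test dose, so the dose is not known. Direction is inferred from retests: higher values go with stronger inhibition. Size under these conditions: about 69,000 compounds, about 930 of them at 50% or above in at least one test.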

The filed quantity is “Percent Effect” (%). How 0% and 100% were set is not recorded. Most values in the screen are low, and negative values occur. This is an unselected part of the compounds tested.

CN(C)C(=O)N1CCCC(C(=O)N(C)CCCc2cnn(C)c2)C1 (centres unmarked) read Mtb growth Cornell: 6.876%; Mtb heat-shock: -1.205%.
Cc1nn(C)c2c(NCc3cccnc3)nc(C(C)C)nc12 read Mtb growth Cornell: -36.29%; Mtb heat-shock: -9.657%.
CCN(C)c1ncnc2c1CCN(C(=O)COC)CC2.O=C(O)C(F)(F)F read Mtb growth Cornell: 5.209%; Mtb heat-shock: -27.18%.
N#Cc1cc(N2CCC(CS(N)(=O)=O)CC2)c2ccccc2n1 read Mtb growth Cornell: -17.68%; Mtb heat-shock: -16.5%.
CN(C)C1COC2(CCN(Cc3nccs3)CC2)C1.O=C(O)C(F)(F)F.O=C(O)C(F)(F)F (centres unmarked) read Mtb growth Cornell: 43.07%; Mtb heat-shock: -24.15%.
CN(CC(N)=O)S(=O)(=O)c1ccc(F)cc1Cl read Mtb growth Cornell: 12.17%; Mtb heat-shock: 5.834%.
O=C(c1c[nH]c(=O)[nH]1)N1CCc2ccccc21 read Mtb growth Cornell: -17.53%; Mtb heat-shock: -4.882%.
COC(CNC(=O)c1ccoc1)c1cccc(Cl)c1 (centres unmarked) read Mtb heat-shock: -140.4%.
CC(C)=CCN1CCc2onc(-c3ccc(F)c(F)c3)c2C1 read Mtb growth Cornell: 16.84%; Mtb heat-shock: 24.32%.
[H][C@]12CN(c3ncc(C)cn3)C[C@@]1([H])S(=O)(=O)CC[C@@H]2C(=O)NCC(C)C read Mtb growth Cornell: 2.817%; Mtb heat-shock: 3.565%.
CC(C)c1nc(C2CCCN(C(=O)c3ccc4c(c3)COC4)C2)no1 (centres unmarked) read Mtb heat-shock: -16.5%.
CC(C)C(=O)N1CCC2(CC1)COCCN2Cc1ccc(F)cc1.O=C(O)C(F)(F)F read Mtb growth Cornell: -19.1%; Mtb heat-shock: -25.04%.
O[C@H]1CCCC[C@@H]1N1CCN(CCCc2ccc3c(c2)OCO3)CC1 read Mtb growth Cornell: 7.817%; Mtb heat-shock: -2.868%.
CCN1CC2(CC1=O)CN(C(=O)NC(C)C)CCN(C(=O)C(C)C)C2 (centres unmarked) read Mtb growth Cornell: -21.45%; Mtb heat-shock: 20.85%.
Cc1cnc(C(=O)N2CCC3(CCCN(c4nncs4)C3)C2)cn1 (centres unmarked) read Mtb growth Cornell: -5.764%; Mtb heat-shock: 16.69%.
CCc1ncc(C(=O)N(C)C2Cc3ccccc3C2)cn1 read Mtb growth Cornell: 27.98%; Mtb heat-shock: 10.1%.
COc1ccnc(N2CCN(Cc3nc(-c4ccoc4)no3)CC2)c1 read Mtb growth Cornell: -1.101%; Mtb heat-shock: -12.23%.
O=C(O)C(F)(F)F.O=C(O)C(F)(F)F.[H][C@@]12OCCN(Cc3c(C)noc3C)[C@@]1([H])CC[C@H]2Oc1ccccn1 read Mtb growth Cornell: 9.084%; Mtb heat-shock: -18.57%.
[H][C@@]12CCC(=O)N(CCCOC)[C@]1([H])CCN(Cc1ncc[nH]1)C2 read Mtb heat-shock: -8.083%.
Cn1cc(CCNC(=O)NCc2ccc3c(c2)OCCO3)cn1 read Mtb heat-shock: -7.768%.
Cc1ccc(-c2noc(CN3CCCC(Cn4cncn4)C3)n2)cc1 (centres unmarked) read Mtb heat-shock: -6.554%.
Cc1cccc(N2CCN(CCC(=O)NCc3ccc(C)s3)CC2)c1 read Mtb growth Cornell: -1.652%; Mtb heat-shock: -41.19%.
CC(C)c1nc2c(n1C)CCN(Cc1nc(-c3ccco3)no1)C2 read Mtb heat-shock: 2.32%.
O=C(NCc1ccc(OCC2CC2)nc1)Nc1c(F)cccc1F read Mtb growth Cornell: 32.99%; Mtb heat-shock: 18.19%.
O=C(C1CCCO1)N1CCCC2(CCN(c3cccnc3)CC2)C1.O=C(O)C(F)(F)F (centres unmarked) read Mtb growth Cornell: 1.143%; Mtb heat-shock: 20.34%.
CCc1ccc(C(NC(=O)CCS(C)(=O)=O)C(C)(C)C)o1 (centres unmarked) read Mtb growth Cornell: -20.58%; Mtb heat-shock: 1.039%.
O[C@H]1[C@H](n2cc(-c3cccnc3)nn2)c2ccccc2C12CCNCC2 read Mtb growth Cornell: -2.544%; Mtb heat-shock: -6.039%.
CC(C#N)CNS(=O)(=O)c1ccc(F)c(Br)c1 (centres unmarked) read Mtb heat-shock: -24.39%.
Cc1nccn1-c1cc(CNC(=O)C2CCC(=O)NC2)ccn1 (centres unmarked) read Mtb growth Cornell: -7.384%; Mtb heat-shock: -15.97%.
[H][C@]12CCN(C(=O)NC)CC[C@@]1([H])S(=O)(=O)N(Cc1cccc(Cl)c1)C2 read Mtb growth Cornell: 15.26%; Mtb heat-shock: -18.31%.
Cc1cc(CCC(=O)N2CC[C@H](O)C2)ccc1Br read Mtb heat-shock: 3.608%.
Fc1ccc(CN2CCCC3(CCN(Cc4ncc[nH]4)C3)C2)cc1F (centres unmarked) read Mtb heat-shock: 0.7553%.
CC1CCN(C(=O)c2occc2COc2cccc(C#N)c2)CC1 read Mtb growth Cornell: 35.52%; Mtb heat-shock: 38.88%.
Cc1cc(N2CCCCC2Cn2nc(C)cc2C)n2ncnc2n1 (centres unmarked) read Mtb growth Cornell: 27.65%; Mtb heat-shock: 25.99%.
Cc1cnccc1CN1CC[C@@](C)(O)[C@H](Oc2cccc(F)c2)C1 read Mtb heat-shock: -11.46%.
CN1C(=O)CC(c2cnn(C)c2)C12CCN(C(=O)c1ccc[nH]1)CC2 (centres unmarked) read Mtb growth Cornell: -44.42%; Mtb heat-shock: 3.994%.
COc1ccccc1C1=NOC(CC2(C(=O)NC(C)C)CCOCC2)C1 (centres unmarked) read Mtb growth Cornell: -62.48%; Mtb heat-shock: -13.62%.

The last 2 entries again:

structure	Mtb growth Cornell	Mtb heat-shock
CN1C(=O)CC(c2cnn(C)c2)C12CCN(C(=O)c1ccc[nH]1)CC2 (centres unmarked)	-44.42	3.994
COc1ccccc1C1=NOC(CC2(C(=O)NC(C)C)CCOCC2)C1 (centres unmarked)	-62.48	-13.62

Measurements from “University of Dundee, Small-Polar-MMV Screening Library” (2021), ChEMBL document CHEMBL3988442.